The target of one test is GFP-Tom1 W423A/L424A (UniProt O60784). Kind of test: co-IP; RPE cells transfected with GFP-Tom1 WT or W423A/L424A; GFP immunoprecipitation; western blots with antibodies to myosin VI, GFP and Tollip. A general note: In western blotting, separated proteins are transferred to a membrane and probed.
Another test concerns the target GFP-Tom1 WT (UniProt O60784). The description is as above.

The chains behind the UniProt entries cited, without tags or fusion partners. Where a name states a change or a piece, a line headed by the entry shows the natural chain unless it says otherwise. A line that says so, or that is headed by a name, gives the form on record, which may keep a tag or linker.
endogenous myosin VI of RPE cells (Q9UM54-1, form named): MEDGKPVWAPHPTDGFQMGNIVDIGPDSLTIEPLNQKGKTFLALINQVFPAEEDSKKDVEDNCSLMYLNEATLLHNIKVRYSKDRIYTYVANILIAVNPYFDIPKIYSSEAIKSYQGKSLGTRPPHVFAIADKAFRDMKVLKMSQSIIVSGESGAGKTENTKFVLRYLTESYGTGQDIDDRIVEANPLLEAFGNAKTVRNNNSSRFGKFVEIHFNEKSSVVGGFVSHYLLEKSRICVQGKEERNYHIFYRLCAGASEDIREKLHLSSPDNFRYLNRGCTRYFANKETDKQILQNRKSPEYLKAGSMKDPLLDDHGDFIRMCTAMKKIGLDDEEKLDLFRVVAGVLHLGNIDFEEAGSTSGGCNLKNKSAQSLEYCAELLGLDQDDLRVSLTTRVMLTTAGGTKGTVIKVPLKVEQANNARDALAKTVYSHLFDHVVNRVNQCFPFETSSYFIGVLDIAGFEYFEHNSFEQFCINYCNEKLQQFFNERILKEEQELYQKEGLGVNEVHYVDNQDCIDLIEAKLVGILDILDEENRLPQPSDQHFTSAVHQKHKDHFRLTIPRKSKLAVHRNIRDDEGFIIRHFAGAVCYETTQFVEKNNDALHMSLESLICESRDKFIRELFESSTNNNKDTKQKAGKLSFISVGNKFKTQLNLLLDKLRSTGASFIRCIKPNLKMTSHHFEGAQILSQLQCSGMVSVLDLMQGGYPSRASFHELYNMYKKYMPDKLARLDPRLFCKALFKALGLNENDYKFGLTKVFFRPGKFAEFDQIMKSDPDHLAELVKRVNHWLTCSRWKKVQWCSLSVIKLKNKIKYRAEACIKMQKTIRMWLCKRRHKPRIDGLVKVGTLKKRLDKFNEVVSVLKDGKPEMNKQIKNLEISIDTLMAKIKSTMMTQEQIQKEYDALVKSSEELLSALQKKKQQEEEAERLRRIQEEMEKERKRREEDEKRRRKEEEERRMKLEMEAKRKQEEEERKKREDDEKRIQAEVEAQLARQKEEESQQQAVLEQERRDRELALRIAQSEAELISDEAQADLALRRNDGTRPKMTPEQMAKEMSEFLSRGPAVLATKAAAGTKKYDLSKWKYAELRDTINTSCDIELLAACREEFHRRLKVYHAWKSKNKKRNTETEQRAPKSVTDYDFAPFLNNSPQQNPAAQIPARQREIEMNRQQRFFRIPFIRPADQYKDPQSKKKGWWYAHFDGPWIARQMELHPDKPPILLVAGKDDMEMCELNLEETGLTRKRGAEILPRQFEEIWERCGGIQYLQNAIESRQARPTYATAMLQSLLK

No constants are given. Whether binding was seen depends on the method and setting. Binding seen in cells or lysates may run through a third protein. Some binding calls cover weakened binding; strength is not graded here.

In the case of “endogenous myosin VI of RPE cells (from UniProt Q9UM54-1 1-1285)”, the binding entry with GFP-Tom1 W423A/L424A was “no binding”; with GFP-Tom1 WT, “binds”.

The values are drawn from paper PMC5074368.
